The list is a part of this screen's results and no random one: it gathers some chemical classes. Other doses and runs of a compound may be missing. T/C gives the treated animals as a percentage of the vehicle group. For survival time, the PubChem record calls one and a half times the control and up active, and a quarter to a half above the control has no call in these data; cut-offs in other NCI protocols can differ. Some entries show no survivor count and are marked so; the dose need not have been tolerated. Schedule codes are those of the source, read here as Q, the interval in days (D) or hours (H), X, the number of doses. Brackets with × give the number of equal values in this list. Some entries hold several experiments; the values are given in rising order. Some schedules carry Z or #; the key to these is not given.
Tested on: L1210 leukemia ip in BDF1 mice, survival T/C
Experiment: NCI In Vivo Anticancer Drug Screen. Data for tumor model L1210 Leukemia (intraperitoneal) in B6D2F1 (BDF1) mice
Conditions: higher T/C = longer survival

CN(CCCl)CCCl
T/C (T/C endpoint: mean survival time, dose: 120.0 micrograms/kg/injection, schedule: Q01DX009 (ip), vehicle: water): 111 [survivor count not shown] and 124 % of control [survivor count not shown]
T/C (T/C endpoint: mean survival time, dose: 120.0 micrograms/kg/injection, schedule: Q01DX Z (ip), vehicle: saline): 147 % of control [survivor count not shown]
T/C (T/C endpoint: mean survival time, dose: 120.0 micrograms/kg/injection, schedule: Q#A X Z (ip), vehicle: saline): 149 % of control [survivor count not shown]
T/C (T/C endpoint: mean survival time, dose: 125.0 micrograms/kg/injection, schedule: Q01DX001 (ip), vehicle: saline): 129 [survivor count not shown], 130 [survivor count not shown], 137 [survivor count not shown] (4×), 142 % of control [survivor count not shown] (2×)
T/C (T/C endpoint: mean survival time, dose: 143.0 micrograms/kg/injection, schedule: Q01DX Z (ip), vehicle: carboxymethylcellulose (CMC)): 161 % of control [survivor count not shown]
T/C (T/C endpoint: mean survival time, dose: 180.0 micrograms/kg/injection, schedule: Q01DX Z (ip), vehicle: carboxymethylcellulose (CMC)): 142 % of control [survivor count not shown]
T/C (T/C endpoint: mean survival time, dose: 190.0 micrograms/kg/injection, schedule: Q03DX Z (ip), vehicle: saline): 151 % of control [survivor count not shown]
T/C (T/C endpoint: mean survival time, dose: 200.0 micrograms/kg/injection, schedule: Q01DX Z (ip), vehicle: carboxymethylcellulose (CMC)): 150 % of control [survivor count not shown]
T/C (T/C endpoint: mean survival time, dose: 220.0 micrograms/kg/injection, schedule: Q01DX001 (ip), vehicle: saline): 138 % of control [survivor count not shown]
T/C (T/C endpoint: mean survival time, dose: 225.0 micrograms/kg/injection, schedule: Q01DX001 (ip), vehicle: saline): 146 % of control [survivor count not shown]
T/C (T/C endpoint: mean survival time, dose: 225.0 micrograms/kg/injection, schedule: Q07DX Z (ip), vehicle: saline): 146 % of control [survivor count not shown]
T/C (T/C endpoint: mean survival time, dose: 230.0 micrograms/kg/injection, schedule: Q01DX009 (ip), vehicle: water): 151 [survivor count not shown] and 156 % of control [survivor count not shown]
T/C (T/C endpoint: mean survival time, dose: 238.0 micrograms/kg/injection, schedule: Q01DX Z (ip), vehicle: carboxymethylcellulose (CMC)): 146 % of control [survivor count not shown]
T/C (T/C endpoint: mean survival time, dose: 248.0 micrograms/kg/injection, schedule: Q01DX017 (ip), vehicle: saline): 152 % of control [survivor count not shown]
T/C (T/C endpoint: mean survival time, dose: 248.0 micrograms/kg/injection, schedule: Q02DX009 (ip), vehicle: saline): 154 % of control [survivor count not shown]
T/C (T/C endpoint: mean survival time, dose: 250.0 micrograms/kg/injection, schedule: Q01DX001 (ip), vehicle: saline): 135 [survivor count not shown] (2×), 139 [survivor count not shown] (2×), 140 [survivor count not shown], 142 [survivor count not shown], 144 [survivor count not shown], 145 % of control [survivor count not shown]
T/C (T/C endpoint: mean survival time, dose: 250.0 micrograms/kg/injection, schedule: Q01DX Z (ip), vehicle: saline): 149 % of control [survivor count not shown]
T/C (T/C endpoint: mean survival time, dose: 250.0 micrograms/kg/injection, schedule: Q#A X Z (ip), vehicle: saline): 169 % of control [survivor count not shown]
T/C (T/C endpoint: mean survival time, dose: 300.0 micrograms/kg/injection, schedule: Q01DX Z (ip), vehicle: carboxymethylcellulose (CMC)): 146 % of control [survivor count not shown]
T/C (T/C endpoint: mean survival time, dose: 380.0 micrograms/kg/injection, schedule: Q03DX Z (ip), vehicle: saline): 149 % of control [survivor count not shown]
T/C (T/C endpoint: mean survival time, dose: 450.0 micrograms/kg/injection, schedule: Q01DX001 (ip), vehicle: saline): 157 % of control [survivor count not shown]
T/C (T/C endpoint: mean survival time, dose: 450.0 micrograms/kg/injection, schedule: Q01DX009 (ip), vehicle: water): 101 [survivor count not shown] and 134 % of control [survivor count not shown]
T/C (T/C endpoint: mean survival time, dose: 450.0 micrograms/kg/injection, schedule: Q07DX Z (ip), vehicle: saline): 155 % of control [survivor count not shown]
T/C (T/C endpoint: mean survival time, dose: 500.0 micrograms/kg/injection, schedule: Q01DX001 (ip), vehicle: saline): 137 [survivor count not shown], 140 [survivor count not shown], 142 [survivor count not shown], 144 [survivor count not shown], 148 [survivor count not shown] (2×), 151 [survivor count not shown], 160 % of control [survivor count not shown]
T/C (T/C endpoint: mean survival time, dose: 500.0 micrograms/kg/injection, schedule: Q01DX Z (ip), vehicle: carboxymethylcellulose (CMC)): 120 % of control [survivor count not shown]
T/C (T/C endpoint: mean survival time, dose: 750.0 micrograms/kg/injection, schedule: Q03DX Z (ip), vehicle: saline): 160 % of control [survivor count not shown]
T/C (T/C endpoint: mean survival time, dose: 900.0 micrograms/kg/injection, schedule: Q01DX001 (ip), vehicle: saline): 152 % of control [survivor count not shown]
T/C (T/C endpoint: mean survival time, dose: 900.0 micrograms/kg/injection, schedule: Q07DX Z (ip), vehicle: saline): 158 % of control [survivor count not shown]
T/C (T/C endpoint: mean survival time, dose: 1000.0 micrograms/kg/injection, schedule: Q01DX001 (ip), vehicle: saline): 140 [survivor count not shown], 144 [survivor count not shown], 146 [survivor count not shown], 156 [survivor count not shown], 157 [survivor count not shown], 158 [survivor count not shown], 173 [survivor count not shown], 175 % of control [survivor count not shown]
T/C (T/C endpoint: mean survival time, dose: 1000.0 micrograms/kg/injection, schedule: Q01DX017 (ip), vehicle: saline): 158 % of control [survivor count not shown]
T/C (T/C endpoint: mean survival time, dose: 1000.0 micrograms/kg/injection, schedule: Q02DX009 (ip), vehicle: saline): 163 % of control [survivor count not shown]
T/C (T/C endpoint: mean survival time, dose: 1800.0 micrograms/kg/injection, schedule: Q01DX001 (ip), vehicle: saline): 168 % of control [survivor count not shown]
T/C (T/C endpoint: mean survival time, dose: 1800.0 micrograms/kg/injection, schedule: Q07DX Z (ip), vehicle: saline): 192 % of control [survivor count not shown]
T/C (T/C endpoint: median survival time, dose: 0.06 mg/kg/injection, schedule: Q01DX017 (ip), vehicle: saline): 111 [survivor count not shown], 133 [survivor count not shown], 144 % of control [survivor count not shown]
T/C (T/C endpoint: median survival time, dose: 0.12 mg/kg/injection, schedule: Q01DX009 (ip), vehicle: saline): 130 % of control [survivor count not shown] (2×)
T/C (T/C endpoint: median survival time, dose: 0.12 mg/kg/injection, schedule: Q01DX017 (ip), vehicle: saline): 122 [survivor count not shown] and 133 % of control [survivor count not shown]
T/C (T/C endpoint: median survival time, dose: 0.13 mg/kg/injection, schedule: Q01DX017 (ip), vehicle: saline): 124 [survivor count not shown] and 133 % of control [survivor count not shown]
T/C (T/C endpoint: median survival time, dose: 0.25 mg/kg/injection, schedule: Q01DX009 (ip), vehicle: saline): 139 [survivor count not shown] and 145 % of control [survivor count not shown]
T/C (T/C endpoint: median survival time, dose: 0.25 mg/kg/injection, schedule: Q01DX017 (ip), vehicle: saline): 133 [survivor count not shown] (2×), 144 [survivor count not shown], 150 % of control [survivor count not shown]
T/C (T/C endpoint: median survival time, dose: 0.5 mg/kg/injection, schedule: Q01DX009 (ip), vehicle: saline): 121 [survivor count not shown] and 140 % of control [survivor count not shown]
T/C (T/C endpoint: median survival time, dose: 0.5 mg/kg/injection, schedule: Q01DX017 (ip), vehicle: saline): 88 [survivor count not shown], 133 [survivor count not shown], 136 [survivor count not shown], 166 % of control [survivor count not shown]
T/C (T/C endpoint: median survival time, dose: 1.0 mg/kg/injection, schedule: Q01DX009 (ip), vehicle: saline): 100 % of control [survivor count not shown] (2×)
T/C (T/C endpoint: median survival time, dose: 1.0 mg/kg/injection, schedule: Q01DX017 (ip), vehicle: saline): 103 [survivor count not shown] and 133 % of control [survivor count not shown]

From PubChem BioAssay AID248 (DTP/NCI, 2004)
